Laboratory results published in PMC12992792.
Where two headings read alike, the source gives them in different places. Results are given in words; binding and its absence hold for the method and conditions named. Some results given as binding are weak or reduced against the parent protein; the word gives no strength. One block for each molecule: values may come before it.

By UniProt entry, the sequences of proteins in these tests, tags left out.
UniProt O46036: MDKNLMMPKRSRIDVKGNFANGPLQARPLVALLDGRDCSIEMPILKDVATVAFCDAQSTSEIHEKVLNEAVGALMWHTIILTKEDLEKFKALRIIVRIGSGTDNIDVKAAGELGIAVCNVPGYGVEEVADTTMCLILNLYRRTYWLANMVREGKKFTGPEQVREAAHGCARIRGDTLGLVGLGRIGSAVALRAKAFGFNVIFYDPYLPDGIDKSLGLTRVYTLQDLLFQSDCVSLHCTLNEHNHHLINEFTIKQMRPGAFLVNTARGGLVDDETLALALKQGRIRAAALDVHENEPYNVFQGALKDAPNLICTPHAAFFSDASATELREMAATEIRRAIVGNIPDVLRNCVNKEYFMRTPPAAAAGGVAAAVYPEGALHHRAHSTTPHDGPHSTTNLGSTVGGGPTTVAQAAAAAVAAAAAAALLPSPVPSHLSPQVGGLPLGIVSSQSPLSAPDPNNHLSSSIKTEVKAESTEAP
UniProt Q27268: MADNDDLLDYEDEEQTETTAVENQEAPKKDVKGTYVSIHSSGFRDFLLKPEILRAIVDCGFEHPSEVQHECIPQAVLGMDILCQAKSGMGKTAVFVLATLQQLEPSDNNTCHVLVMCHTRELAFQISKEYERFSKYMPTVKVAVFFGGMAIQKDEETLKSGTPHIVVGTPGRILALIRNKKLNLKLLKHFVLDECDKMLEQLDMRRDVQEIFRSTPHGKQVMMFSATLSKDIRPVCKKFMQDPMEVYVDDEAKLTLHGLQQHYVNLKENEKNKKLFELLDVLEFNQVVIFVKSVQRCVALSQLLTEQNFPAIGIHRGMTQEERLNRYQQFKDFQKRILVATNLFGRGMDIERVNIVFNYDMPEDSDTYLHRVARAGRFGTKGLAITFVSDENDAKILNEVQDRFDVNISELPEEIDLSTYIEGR

Assays:
Experiment in all cases: two-hybrid; all-versus-all matrix screen in S. cerevisiae; every protein as bait (DBD) and prey (AD), tagged N- or C-terminally, eight configurations a pair; mating on YPDA, selection on -His/-Trp/-Leu/-Ura/-Ade, 30 °C, four to seven days; replication score cutoff 0.75
[1] = target: D. melanogaster C-terminal Binding Protein (D. melanogaster) (UniProt O46036)
[2] = target: D. melanogaster UAP56 (D. melanogaster) (UniProt Q27268)
[3] = target: T1, D. melanogaster Deadlock (D. melanogaster), Q9VIF5; details: remark: other sources report otherwise
T1 chain: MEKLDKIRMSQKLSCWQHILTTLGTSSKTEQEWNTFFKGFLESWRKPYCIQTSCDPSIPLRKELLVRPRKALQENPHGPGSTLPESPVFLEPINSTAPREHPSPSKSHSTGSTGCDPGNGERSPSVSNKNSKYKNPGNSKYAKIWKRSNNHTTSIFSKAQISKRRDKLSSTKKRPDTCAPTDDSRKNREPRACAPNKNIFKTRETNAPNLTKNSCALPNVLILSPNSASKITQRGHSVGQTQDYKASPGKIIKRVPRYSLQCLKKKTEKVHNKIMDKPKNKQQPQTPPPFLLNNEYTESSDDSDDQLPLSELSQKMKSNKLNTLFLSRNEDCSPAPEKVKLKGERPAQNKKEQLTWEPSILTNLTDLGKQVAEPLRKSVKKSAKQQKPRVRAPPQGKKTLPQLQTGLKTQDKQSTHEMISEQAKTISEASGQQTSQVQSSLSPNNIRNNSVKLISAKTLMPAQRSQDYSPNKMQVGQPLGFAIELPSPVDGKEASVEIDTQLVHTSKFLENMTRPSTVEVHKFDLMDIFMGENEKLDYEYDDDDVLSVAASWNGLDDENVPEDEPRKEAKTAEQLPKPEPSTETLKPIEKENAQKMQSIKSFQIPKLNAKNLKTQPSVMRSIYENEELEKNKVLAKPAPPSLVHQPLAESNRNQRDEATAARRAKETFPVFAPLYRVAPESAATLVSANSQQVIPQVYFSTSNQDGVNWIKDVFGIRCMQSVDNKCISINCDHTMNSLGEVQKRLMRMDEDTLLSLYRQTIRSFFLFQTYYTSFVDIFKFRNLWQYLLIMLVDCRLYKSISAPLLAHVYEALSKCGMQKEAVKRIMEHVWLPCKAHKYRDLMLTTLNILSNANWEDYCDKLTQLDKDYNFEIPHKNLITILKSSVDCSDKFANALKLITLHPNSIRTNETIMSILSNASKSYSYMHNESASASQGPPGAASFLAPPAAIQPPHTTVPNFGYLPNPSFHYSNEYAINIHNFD

[4] = target: D. melanogaster C-terminal Binding Protein (D. melanogaster) (UniProt O46036); remark: listed apart in the source

- binding [1]: binds
Molecule: D. melanogaster C-terminal Binding Protein (from UniProt O46036 1-476)

- binding [2]: binds
Molecule: D. melanogaster UAP56 (from UniProt Q27268 1-424)

- binding [3]: no binding
B1: D. melanogaster Moonshiner, Q9VYQ0 1-172 (protein)
chain: MAKILPTDGIWIPESCSFPEDVMIDMMEGLFRDVPNLTHKEYLALADLQSRWMAKLANRQPESNPLPPKPKKRKKIAPKKQDQPVEEKGSEVDIYDVDDNEMVNNRIYIPRLRSAWRARYFNIMMRAFVIKRGLLNKHINWQILDKIMAAPDAEGQAELQAFVDKVVAGQEM

- binding [4]: no binding
B2: D. melanogaster Cutoff (protein, UniProt Q9V629 1-384)
chain: MNSNYTILNIRAHSWAEKDNLVFPTITKPVSNGWFAWSPIGQFEPNSQKVPYVVVPPSIKFPISLRYKDSPPKLEKKPNIFLDNMLQYIESSSYMYVMVRNNQQAQLNANIVCTSEVLELMMCAPYEKKTGWSLGVTRYRNTMYICRIDVEQPDPIDQDNLKRAMQEFWLRNLRTHCVFENGIKMHQHNQSSEEHLRFHGVFSFDLNGNRVLFDSPVLAEMPSTTLNGSALSWVDLQIRPMFMSRLDWPEHNRTEALKWWVKCFLLGIESLYIARRDENAHVHNIEKTLVRDLWKSCEKDWSPTVCANFMIYLLNCISQVMAPIDCPSTVYLFQFDASQGTVSYKGLRGRNQYTFVSDWFRMMLDDHTNDMCKTPNLQTMSSIV
